In all, about 33,000 sequences were measured (“E-score (-0.5 to 0.5)”: median about -0.016, highest 2% from about 0.3 on). The list shows a part of the results.
Molecular target: T1, Yer184c (UniProt P39961)
T1 sequence: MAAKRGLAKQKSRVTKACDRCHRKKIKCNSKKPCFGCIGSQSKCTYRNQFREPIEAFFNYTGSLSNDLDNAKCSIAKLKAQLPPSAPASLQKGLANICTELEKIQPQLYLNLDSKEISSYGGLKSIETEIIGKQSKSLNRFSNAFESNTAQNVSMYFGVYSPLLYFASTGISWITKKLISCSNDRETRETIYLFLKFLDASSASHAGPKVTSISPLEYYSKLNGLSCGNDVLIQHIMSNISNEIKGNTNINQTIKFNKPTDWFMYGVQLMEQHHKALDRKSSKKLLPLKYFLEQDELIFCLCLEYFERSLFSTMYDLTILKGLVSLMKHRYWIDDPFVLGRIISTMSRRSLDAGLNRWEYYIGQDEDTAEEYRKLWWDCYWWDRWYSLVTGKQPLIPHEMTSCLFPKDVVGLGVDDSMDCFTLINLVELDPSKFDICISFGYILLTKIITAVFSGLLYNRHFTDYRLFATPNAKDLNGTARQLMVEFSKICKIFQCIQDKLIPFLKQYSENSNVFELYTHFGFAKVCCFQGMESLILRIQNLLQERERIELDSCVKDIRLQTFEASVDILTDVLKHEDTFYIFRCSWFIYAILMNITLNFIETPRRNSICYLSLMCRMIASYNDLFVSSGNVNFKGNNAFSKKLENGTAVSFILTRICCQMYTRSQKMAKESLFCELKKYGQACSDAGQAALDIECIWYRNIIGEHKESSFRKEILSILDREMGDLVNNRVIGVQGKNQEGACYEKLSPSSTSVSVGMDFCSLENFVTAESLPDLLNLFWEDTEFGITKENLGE
Experiment: PBM E-score (8-mer binding enrichment) (E-score (-0.5 to 0.5)); higher = stronger / more preferred TF binding
Conditions: protein concentration: 100 nM; construct: GST-full length
Method in brief: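 Bound GST-tagged yeast transcription factors, applied at about 100-200 nM to double-stranded universal all-10-mer Agilent arrays, were detected with fluorescent anti-GST. Scans were normalised with masliner. A modified Wilcoxon-Mann-Whitney statistic, the E-score, was assigned to each ungapped eight-base word pooled with its reverse complement by the Universal PBM Analysis Suite.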

Sequence | PBM E-score
GAGCCGGC | 0.406
TCATGAAA | -0.0304
AGTTTATG | 0.0601
CACCTCTC | -0.422
CTAAGATA | -0.0939
CAGTTCGG | 0.278
ATGTGTCG | -0.0246
CGTGAGCC | -0.181
GTTTTCGA | 0.0208
CATTGGTC | -0.157
CACAAATC | 0.0459
GGGGTGGA | -0.253
AACGAAAG | 0.0872
AAAGTTCC | -0.0249
TCTACAAA | 0.0103
ACTTGAGA | -0.122
AATGTAGT | -0.00611
AATCTTAT | 0.135
AACATGTA | 0.125
ACTTTCCG | 0.283
AGCAATAC | -0.0448
ATCAATTA | 0.289
ACCTTGGG | -0.0755
AGGTGGCG | -0.23

Sequence | PBM E-score
TGTGTGAA | -0.00139
AAGACCTA | 0.0922
ACAGCGCC | 0.0141
ACAGGTCA | -0.198
CTCGGGTA | 0.17
CGCCCGTC | 0.0863
AATACGGG | -0.0849
GTGTACTA | 3e-05
GTCGGAAA | 0.318
GCGCCGCC | 0.122
ATTCTACG | 0.0509
GTAAGGTA | 0.103
GATGCGTA | -0.0625
CAGTTCTC | -0.0246
AGAGGAAT | -0.0733
CAAGCTTG | -0.131
ATGCCCTG | -0.147
AGACTTTC | 0.0167
CTATCTCA | 0.0431
AAACCCCC | -0.354
ACATAATC | 0.0975
ATGAGCCG | 0.066
GAGTTCCC | -0.0116
AGAGTATA | -0.169

Sequence | PBM E-score
ACCTTCTG | -0.0235
AATATTCA | 0.037
CAACAGTA | 0.0627
AAGTCCCA | -0.275
CTGAGTGA | 0.24
AGTAGATC | 0.0008
AAAAAGCG | 0.14
ACCGACAA | 0.13
GGGGCTCA | -0.278
CCCTATCC | -0.194
CACTTACA | -0.0257
AAAGAAAT | 0.231
GCTGTCGA | -0.0787
ATTCCCCG | 0.117
CATTTGAG | 0.0174
CACTGCTG | -0.206
AATTTCAT | 0.0864
CGGGACCA | -0.098
AAAGAGCG | 0.00323
AACAAGCC | -0.04
GCCCCACA | -0.265
GCGGGTCC | -0.0615
GCTATTCC | -0.132
CGTCCTTA | -0.0106

Sequence | PBM E-score
AATATAGG | 0.111
TCGAACAA | 0.218
CGTGGGAC | -0.0911
CTGGCTCA | -0.00502
ACATCTGG | -0.0303
GAAGGAGC | -0.31
CTCCACGA | -0.0321
GAATTGAC | 0.00201
CCAGGGCG | -0.185
ATGCCTTG | -0.0435
CATATTCG | 0.0661
GCGTATAA | 0.0897
GTAGACAA | 0.0722
ATCTATAG | -0.0342
ACATCAAG | -0.0605
CTGATCCA | -0.176
CGCGCTCC | 0.0945
AACTCCGG | 0.424
GAGTGCTA | -0.138
AGTTTGTC | 0.0484
ATCGCTAC | -0.0453
ACGGTATG | 0.0268

A different layout for some results above:

| Sequence | PBM E-score |
| --- | --- |
| CGCGCTCC | 0.0945 |
| AACTCCGG | 0.424 |
| GAGTGCTA | -0.138 |
| AGTTTGTC | 0.0484 |
| ATCGCTAC | -0.0453 |
| ACGGTATG | 0.0268 |
